Values of other authors, collected in patent US20220143227A1, “Method of Treatment of Neuroendocrine Tumors That Over-Express Somatostatatin Receptors” (ADVANCED ACCELERATOR APPLICATIONS, priority 2015, published 2022).
At least one structure is not confirmed: it was looked up by name or label, or the drawing left a doubt.

Tested on: unresectable or metastatic, well-differentiated pNETs
Conditions: Phase 3 trials

Structure (SMILES): CCN(CC)CCNC(=O)c1c(C)[nH]c(/C=C2\C(=O)Nc3ccc(F)cc32)c1C [sunitinib]
- PFS: 11.4 months
